Reference: the supplement of paper PMC6078165
The reference is the same well before dosing, and untreated signal decays as well.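 Fibroblast labels denote human fibroblasts, mainly primary ones from uterus (C12385, HUF), lung (H6013), bone (Hs27A), adrenal (HADF) and skin (WS1), plus mammary HMF and breast cancer-associated Hs343T. Cancer cells are basal-like or mesenchymal-like triple-negative breast cancer lines. A hit is a response shift exceeding 3x replicate standard deviation. The tissue of the other fibroblasts is not given here.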

Test system: MDAMB231
Assay: relative JC-1 red fluorescence (viability) vs pre-drug, coculture with fibroblast (fraction); higher = more viable cancer cells
Description: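 JC-1 labelled TNBC cells cocultured 1:1 (1,500 cells each) with CellTrace Violet stained primary or stromal fibroblasts in 384-well plates in FluoroBrite medium, treated with one of 42 anticancer drugs at 0.1, 1, 10 or 100 uM. JC-1 red fluorescence (mitochondrial integrity in cancer cells only) was read by plate reader every 8 h for 72 h. Values are normalised to each well's pre-drug value. The stock of one drug was tenfold lower, so its dose labels may be too high.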

Nc1ccn([C@@H]2O[C@H](CO)[C@@H](O)C2(F)F)c(=O)n1 [Gemcitabine]
relative JC-1 red fluorescence
Conditions	8 h	16 h	24 h	32 h	40 h	48 h	56 h	64 h	72 h
0.1 µM, coculture fibroblast: C12385	0.773	0.71	0.635	0.598	0.534	0.51	0.47	0.468	0.457
0.1 µM, coculture fibroblast: H6013	0.905	0.811	0.779	0.7679	0.708	0.678	0.6531	0.637	0.598
0.1 µM, coculture fibroblast: H6019	0.7568	0.652	0.594	0.5484	0.4965	0.485	0.442	0.431	0.3973
0.1 µM, coculture fibroblast: H6076	0.878	0.784	0.7312	0.7192	0.685	0.653	0.64	0.63	0.634
0.1 µM, coculture fibroblast: H6231	0.879	0.781	0.712	0.667	0.621	0.5913	0.5533	0.549	0.533
0.1 µM, coculture fibroblast: HADF	0.8948	0.839	0.781	0.753	0.708	0.654	0.634	0.618	0.564
0.1 µM, coculture fibroblast: HCFa	0.876	0.796	0.7549	0.73022	0.687	0.648	0.603	0.564	0.511
0.1 µM, coculture fibroblast: HCPF	0.9522	0.844	0.739	0.698	0.6475	0.596	0.557	0.5192	0.4761
0.1 µM, coculture fibroblast: HHSteC	0.9087	0.85	0.801	0.746	0.7	0.671	0.622	0.587	0.531
0.1 µM, coculture fibroblast: HMF	0.8961	0.794	0.738	0.696	0.655	0.621	0.59	0.568	0.541
0.1 µM, coculture fibroblast: HPFa	0.9174	0.86	0.803	0.752	0.719	0.681	0.627	0.5978	0.546
0.1 µM, coculture fibroblast: HUF	0.869	0.762	0.773	0.667	0.596	0.578	0.537	0.538	0.516
0.1 µM, coculture fibroblast: Hs5	0.873	0.788	0.763	0.733	0.71	0.667	0.649	0.635	0.624
0.1 µM, coculture fibroblast: Hs27A	0.8738	0.8116	0.763	0.73	0.681	0.612	0.618	0.596	0.553
0.1 µM, coculture fibroblast: Hs343T	0.942	0.813	0.746	0.707	0.655	0.603	0.543	0.509	0.469
0.1 µM, coculture fibroblast: WS1	0.7611	0.654	0.649	0.577	0.537	0.522	0.485	0.501	0.501
1 µM, coculture fibroblast: C12385	0.749	0.693	0.645	0.627	0.57394	0.547	0.508	0.506	0.502
1 µM, coculture fibroblast: H6013	0.889	0.808	0.766	0.751	0.703	0.6824	0.643	0.62	0.574
1 µM, coculture fibroblast: H6019	0.7	0.629	0.602	0.539	0.48	0.455	0.414	0.402	0.364
1 µM, coculture fibroblast: H6076	0.877	0.761	0.729	0.709	0.662	0.637	0.619	0.607	0.617
1 µM, coculture fibroblast: H6231	0.8754	0.772	0.707	0.675	0.618	0.589	0.555	0.551	0.547
1 µM, coculture fibroblast: HADF	0.858	0.785	0.755	0.718	0.6852	0.6555	0.6234	0.5938	0.5351
1 µM, coculture fibroblast: HCFa	0.8878	0.817	0.7701	0.7376	0.669	0.626	0.585	0.546	0.489
1 µM, coculture fibroblast: HCPF	0.922	0.815	0.724	0.697	0.63	0.585	0.53	0.479	0.432
1 µM, coculture fibroblast: HHSteC	0.889	0.825	0.786	0.742	0.698	0.665	0.623	0.598	0.544
1 µM, coculture fibroblast: HMF	0.869	0.754	0.7211	0.6978	0.658	0.6251	0.5921	0.5814	0.5626
1 µM, coculture fibroblast: HPFa	0.944	0.8922	0.854	0.801	0.7781	0.7452	0.691	0.664	0.607
1 µM, coculture fibroblast: HUF	0.845	0.733	0.716	0.61	0.544	0.529	0.461	0.449	0.438
1 µM, coculture fibroblast: Hs5	0.893	0.78	0.721	0.675	0.627	0.578	0.54637	0.5232	0.514
1 µM, coculture fibroblast: Hs27A	0.875	0.813	0.7978	0.778	0.745	0.695	0.699	0.686	0.634
1 µM, coculture fibroblast: Hs343T	0.89201	0.757	0.689	0.65	0.587	0.54	0.488	0.461	0.424
1 µM, coculture fibroblast: WS1	0.714	0.609	0.588	0.519	0.478	0.458	0.423	0.432	0.427
10 µM, coculture fibroblast: C12385	0.7806	0.711	0.64	0.623	0.571	0.5378	0.4907	0.486	0.469
10 µM, coculture fibroblast: H6013	0.892	0.842	0.795	0.759	0.705	0.655	0.621	0.589	0.539
10 µM, coculture fibroblast: H6019	0.8026	0.737	0.6721	0.663	0.606	0.575	0.528	0.52	0.492
10 µM, coculture fibroblast: H6076	0.91	0.829	0.774	0.733	0.663	0.606	0.562	0.534	0.524
10 µM, coculture fibroblast: H6231	0.791	0.868	0.8	0.745	0.695	0.653	0.609	0.582	0.55
10 µM, coculture fibroblast: HADF	0.869	0.8332	0.8098	0.7674	0.7303	0.67	0.649	0.603	0.547
10 µM, coculture fibroblast: HCFa	0.88599	0.8329	0.8	0.766	0.724	0.67	0.639	0.594	0.535
10 µM, coculture fibroblast: HCPF	0.889	0.779	0.727	0.71	0.663	0.618	0.576	0.549	0.524
10 µM, coculture fibroblast: HHSteC	0.8904	0.821	0.791	0.757	0.712	0.678	0.625	0.6	0.544
10 µM, coculture fibroblast: HMF	0.839	0.879	0.811	0.759	0.697	0.643	0.568	0.534	0.494
10 µM, coculture fibroblast: HPFa	0.935	0.8711	0.8256	0.7765	0.747	0.7	0.651	0.616	0.566
10 µM, coculture fibroblast: HUF	0.87	0.724	0.699	0.594	0.536	0.511	0.466	0.46643	0.46
10 µM, coculture fibroblast: Hs5	0.94	0.842	0.785	0.745	0.686	0.614	0.5673	0.5349	0.5165
10 µM, coculture fibroblast: Hs27A	0.908	0.8427	0.813	0.8	0.755	0.677	0.683	0.65	0.605
10 µM, coculture fibroblast: Hs343T	0.854	0.782	0.737	0.704	0.666	0.625	0.552	0.521	0.486
10 µM, coculture fibroblast: WS1	0.7653	0.682	0.613	0.5857	0.54	0.512	0.46	0.458	0.439
100 µM, coculture fibroblast: C12385	0.749	0.727	0.603	0.6	0.529	0.505	0.457	0.452	0.433
100 µM, coculture fibroblast: H6013	0.8981	0.8558	0.835	0.81	0.742	0.708	0.681	0.657	0.629
100 µM, coculture fibroblast: H6019	0.764	0.693	0.636	0.604	0.552	0.525	0.48	0.488	0.462
100 µM, coculture fibroblast: H6076	0.907	0.827	0.807	0.786	0.744	0.692	0.654	0.626	0.619
100 µM, coculture fibroblast: H6231	0.851	0.897	0.814	0.753	0.679	0.632	0.576	0.535	0.497
100 µM, coculture fibroblast: HADF	0.89	0.837	0.811	0.785	0.742	0.707	0.684	0.647	0.598
100 µM, coculture fibroblast: HCFa	0.9118	0.839	0.797	0.762	0.71	0.651	0.612	0.567	0.508
100 µM, coculture fibroblast: HCPF	0.881	0.774	0.6989	0.679	0.628	0.597	0.566	0.539	0.512
100 µM, coculture fibroblast: HHSteC	0.8997	0.839	0.798	0.762	0.717	0.676	0.628	0.59	0.532
100 µM, coculture fibroblast: HMF	0.859	0.756	0.723	0.692	0.647	0.624	0.593	0.5817	0.562
100 µM, coculture fibroblast: HPFa	0.9487	0.892	0.847	0.812	0.783	0.74496	0.68941	0.664	0.616
100 µM, coculture fibroblast: HUF	0.842	0.724	0.712	0.601	0.5383	0.5265	0.481	0.489	0.481
100 µM, coculture fibroblast: Hs5	0.9108	0.8209	0.779	0.735	0.692	0.642	0.616	0.59	0.587
100 µM, coculture fibroblast: Hs27A	0.8943	0.844	0.823	0.797	0.759	0.699	0.703	0.688	0.636
100 µM, coculture fibroblast: Hs343T	0.913	0.8	0.731	0.689	0.639	0.594	0.533	0.501	0.457
100 µM, coculture fibroblast: WS1	0.769	0.7	0.677	0.6354	0.601	0.582	0.545	0.54	0.524
